Reference: the supplement of paper PMC4683952
This is one part of the list. Cut-off read from the data, not from the text of the source: active = 2 or more and inactive = the rest. Most values lie within the scatter of the assay; repeated measurements hardly agree.

System: Lgr5 (MarsCy1-Lgr5-EGFP, U2OS)
Assay: cell-surface Lgr5 expression (SCi1 fluorescence, background-subtracted) relative to WT DMSO (fold of DMSO control); higher = more Lgr5 at the plasma membrane
Conditions: U2OS MarsCy1-Lgr5-EGFP stable; treatment time: overnight; library: ActiProbe-5K (TimTec); 25 µM

cell-surface Lgr5 expression, inactive:
COc1ccc(S(=O)(=O)c2cc(O)ccc2O)cc1 1.17
CC12C=CC(C)(O1)C1C(=O)NC(=O)C12 (stereo not drawn) 1.33
O=[N+]([O-])c1ccc2c(c1)C1C=CCC1C(c1ccc(F)cc1)N2 (stereo not drawn) 0.513
Oc1ncnc2c1sc(=S)n2-c1ccccc1 1.19
Cc1cc(C)c(Cc2c(C)c(/C=N\O)c(C)c(Cc3c(C)cc(C)c(/C=N\O)c3C)c2C)c(C)c1/C=N\O 0.699
COc1ccc(-c2c[nH]c(=N)s2)cc1 1.11
c1ccc(C([C@@H]2[C@H]([C@]([C@@H]3(N2c2ccccc2C=C3))(C#N)C#N)c2c(C(F)(F)F)cccc2)=O)cc1 1.82
C/C=C\c1c(C)nc2sc(C#N)c(N)c2c1C 1.2
Oc1nc(O)c2sc3nc(C4CC4)cc(C(F)(F)F)c3c2n1 1.01
N#CC1=C(N)OC(N)=C(C#N)C1c1cc(Br)cs1 1.64
C=CC[C@H]1CC=C[C@H](C)N1.Cl 1.17
CC(C)c1cc(C(F)(F)F)nc(S[C@H]2CC(=O)[C@@H]3OC[C@H]2O3)n1 0.985
Oc1c(-c2ccccc2)c2nc3ccccc3nc2c2ccccc12 1.15
CC1(C)OC(=O)N2CCc3sccc3C21C (stereo not drawn) 1.3
O=c1[nH]n2cc(-n3cc([N+](=O)[O-])cn3)cnc2c1[N+](=O)[O-] 1.4
COc1ccc(Br)c2c1OCCO2 1.62
COc1ccc(OC)c(NC(=S)Nc2ccc(F)cc2)c1 0.867
Nc1ccc(N2CCCC2)c(C(F)(F)F)c1 1.22
O=S(=O)(Nc1nc2ccccc2nc1Cl)c1ccccc1 1.06
c1ccc2[nH]c(CCn3c4c(c5ccccc53)CCCC4)nc2c1 0.914
CC(C)(C)NS(=O)(=O)c1ccc(F)cc1 0.973
C[NH+]1CCCCC1.N#CC1=C(N)NC([S-])=C(C#N)C12CCCCC2 1.14
Oc1cc(-c2ccc3c(c2)OCO3)n[nH]1 0.937
CCN(CC)C(=O)N1CCOCC1 1.11
CC(C)c1ccc(/C=N/n2c(S)nnc2-c2ccc(C(C)(C)C)cc2)cc1 0.912
O=c1[nH]c2ccccc2n1C1=CCNCC1 1.05
CC(/C=N/n1c(S)nnc1-c1ccco1)=C\c1ccco1 1.15
Cc1ccc(/C=N\NC(=O)c2cnccn2)o1 1.02
CCCCNC(=S)N(C1CCCCC1)C1CCCCC1 1.08
CCn1nnnc1SCSc1nnnn1CC 0.964
Nc1nonc1-c1noc(CCCOc2ccc(Cl)cc2Cl)n1 1.4
O=C1NC(=S)S/C1=C/c1ccc(-c2ccc3c(c2)COC3=O)o1 1.04
CSc1nc2c(cc1C#N)CCC2 1.28
CS(=O)(=O)c1nc(/N=N\c2ccc(O)cc2)n[nH]1 1.34
Cc1cc(C)c(C)c(S(=O)(=O)n2ccnc2C(C)C)c1C 1.13
O=C1CS/C(=N/c2ccccc2)N1c1ccccc1 1.26
[C-]#[N+]c1ccc(Cl)cc1C(C)S(=O)(=O)c1ccc(C)cc1 (stereo not drawn) 0.895
[Br-].[Br-].c1cc[n+](CC[n+]2ccccc2)cc1 1.19
COC(=O)n1nc(C)c(Br)c1C 0.794
CC1(C)CC(=O)C(C(C2=C(O)CC(C)(C)CC2=O)c2cccs2)C(=O)C1 (stereo not drawn) 1.2
Sc1nnc(C2CCCCC2)n1/N=C\c1ccco1 1.06
CC(C)(C)c1ccc(/C=N/n2c(S)nnc2-c2ccc(C(C)(C)C)cc2)cc1 0.665
CCN1CCCC1Cn1c(C)c(C)c(C#N)c1N (stereo not drawn) 1.1
Cc1cc[nH]c1/C=C(/C#N)C(=S)S 0.858
O=C1CC2CS(=O)(=O)CC2N1c1ccccc1 (stereo not drawn) 1.08
N#Cc1c(Nc2ccc([N+](=O)[O-])cc2[N+](=O)[O-])sc2c1CCC2 1.31
CCc1ccc(-c2noc(N)c2C#N)s1 1.49
COC(=O)CCc1n[nH]c(=O)[nH]c1=O 1.32
Cc1ccc2c(c1)NC(C)(C)c1ss/c(=N/c3ccc(Cl)cc3Cl)c1-2 0.948
N#CC1(C#N)[C@H](C(=O)c2ccc(F)cc2)C12CC[C@H]1CO[C@@H]2O1 (stereo partly drawn) 1.18
FC(c1nc2ccccc2[nH]1)C(F)(F)F (stereo not drawn) 0.932
Clc1cccc(-n2cnnn2)c1N1CCCC1 1.71
Oc1cc(C23CC4CC(CC(C4)C2)C3)n[nH]1 1.12
C=C(C)CC1Nc2ccccc2NC1CC(=C)C (stereo not drawn) 1.13
CCOC(=O)c1oc(C(=O)O)c2c1OCCO2 1.14
C=CCNc1nc(-c2ccccc2)nc(-n2ccnc2)n1 0.816
Cc1nc2sc3c(c2c(=O)n1N)CCC3 1.33
Oc1c2nnnc-2cnn1-c1ccccc1 1.15
c1cc(-c2cnn3nnnc3n2)cs1 0.932
O=S(=O)(c1ccccc1)N1CCCc2ccccc21 1.1
NC(=O)CSCCn1ccc2c1CCCC2 1.13
NCCOC12CC3CC(CC(C3)C1)C2 1.46
N#Cc1nc(N2CCCC2)nc(N(c2ccccc2)c2ccccc2)n1 1.86
C/C(=N/Nc1nnc(C)c(=O)[nH]1)C(=O)O 1.26
CC1=CC(C)(C)C(C#N)(C#N)C(N)=C1C#N 1.57
C(=N/c1ccc2[nH]ncc2c1)/c1ccc2c(c1)OCO2 0.331
Nc1nnc(SCC(=O)C2CC2)s1 1.16
O=C1OC(c2ccccc2F)=N/C1=C\c1cccc(F)c1 1.17
Nc1ccc2c(c1)OC1(CCCCC1)O2 1.03
O=C1C2C3C=CC(C3)C2C(=O)N1Nc1ccc([N+](=O)[O-])cc1[N+](=O)[O-] (stereo not drawn) 1.26
C=CCNS(=O)(=O)c1ccc2[nH]c(=O)[nH]c2c1 1.02
COC(=O)c1c(N)sc2c1CCCC2 1.04
Nc1nc(N(c2ccccc2)c2ccccc2)nc(C(F)(F)F)n1 1.66
Nc1nonc1-c1noc(NCc2ccc3c(c2)OCO3)n1 1.07
O=C(NC1CCCCC1)c1scc2c1CCCC2 0.695
Nc1cc(N)nc(S)n1 1.11
CN(C)C(=O)CSc1nnc(C23CC4CC(CC(C4)C2)C3)o1 1.26
CC(C)(C)NC(=O)Nc1nncs1 1.22
O=c1ccc(=O)n(-c2ccc3nnc(C(F)(F)F)n3n2)[nH]1 0.919
CC(=O)N(C)C1CC(C)(C)NC(C)(C)C1 1.06
Cc1nc(SCc2noc(CSc3nc(C)c(C)c(C)c3C#N)n2)c(C#N)c(C)c1C 1.2
Cc1cc(S(=O)(=O)N2CCCCC2)c(C)s1 1.26
O=C1Oc2ccccc2C(=O)/C1=C\c1c[nH]c2ccccc12 0.338
Clc1ccc2c(c1)Nc1ccccc1S2 1.29
O=[N+]([O-])c1ccc(Nc2ccc3c(c2)OCCO3)nc1 0.964
COC(=O)Oc1c(Br)cc2oc(=O)sc2c1[N+](=O)[O-] 1.18
COc1cc2c(cc1OC)C1CCCCC1OC2c1cc(OC)c(OC)c(OC)c1 (stereo not drawn) 1.11
O=[N+]([O-])c1cc(Br)cc2c1[nH]c1ccc(Br)cc12 1.37
COC(=O)c1c(NC(=O)C2C3C=CC(C3)C2C(=O)O)sc2c1CCC2 (stereo not drawn) 1.01
CC(=O)C1C(=O)C=C(c2ccco2)CC1c1ccco1 (stereo not drawn) 1.2
CC(=O)c1nc2c(C)c(C)sc2[nH]1 1.16
Fc1ccc(CSc2ncnc3[nH]cnc23)c2ccccc12 1.18
C1(/C2CC3CC(C2)CC1C3)=N\O 1.24
CC1(C)CC2(CC(C)(C)N1CCO)OCCO2 1.07
N=C1SCC(=O)N1c1nccs1 0.99
CN(C)CCN1CCNCC1 0.782
Oc1c(Br)cc(Br)cc1/C=N\c1nccs1 1.24
CN(CC12CC3CC(CC(C3)C1)C2)S(=O)(=O)c1ccc(Br)s1 1.22
c1ccc2c3c([nH]c2c1)-c1nonc1CC3 1.37
C=CCC1(NCc2ccco2)CCCCC1 1.26
CNCc1cccs1.Cl 1.37
O=C1NN(c2ccc([N+](=O)[O-])cc2)C(=O)C2C3C=CC(C3)C12 (stereo not drawn) 1.19
Oc1ccc(Oc2ncc(Cl)cc2Cl)cc1 1.15
n1c(c(C)n[nH]c1=O)N\N=C1/CCC(CC1)C (stereo not drawn) 1.19
C(=C\c1nccc2c1[nH]c1ccccc12)/c1ccc2c(c1)OCO2 1.35
O=C(NCCCn1ccnc1)c1nc(Cn2cc(Cl)cn2)no1 1.4
O=C(O)CC1CCCCO1 (stereo not drawn) 0.971
O=c1c2c3c(sc2nc2n1CCCCC2)CCCC3 1.27

Arranged by SMILES length (rising): four of the compounds above
cell-surface Lgr5 expression, inactive:
O=c1[nH]c2ccccc2n1C1=CCNCC1 1.05
O=C(NCCCn1ccnc1)c1nc(Cn2cc(Cl)cn2)no1 1.4
Nc1nc(N(c2ccccc2)c2ccccc2)nc(C(F)(F)F)n1 1.66
O=c1ccc(=O)n(-c2ccc3nnc(C(F)(F)F)n3n2)[nH]1 0.919
